Measurements published in article PMC7658645.

Protein sequences, listed by entry. Tags and fused reporters are not part of them. Lines headed by an entry give the natural chain unless they say otherwise; changes in a name come on top.
UniProt P15927: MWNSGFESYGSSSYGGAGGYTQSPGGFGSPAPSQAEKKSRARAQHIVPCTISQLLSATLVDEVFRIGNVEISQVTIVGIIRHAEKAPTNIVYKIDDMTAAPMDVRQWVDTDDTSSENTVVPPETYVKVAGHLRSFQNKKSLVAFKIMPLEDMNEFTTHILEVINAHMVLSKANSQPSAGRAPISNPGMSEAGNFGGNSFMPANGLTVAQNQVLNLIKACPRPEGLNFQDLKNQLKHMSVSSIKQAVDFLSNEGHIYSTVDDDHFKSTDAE

Columns and labels:
[1] = target: GST (glutathione S-transferase tag) (UniProt P08515); assay: EMSA; settings: native protein in solution, up to 16 uM; EMSA: 50 mM Tris-HCl pH 7.5, 100 mM NaCl, 5 mM MgCl2, room temperature, 1 h; recombinant protein; label: 5' Cy5.5; single-stranded DNA
[2] = target: GST (glutathione S-transferase tag) (UniProt P08515); assay: aptamer blot; settings: SDS-PAGE protein on nitrocellulose; Dot blot/aptamer blot: 20 mM Tris-HCl, 100 mM NaCl, 5 mM MgCl2, 0.1% BSA (pH not given), 50 nM aptamer in dot blot (membranes equilibrated at 4 C); recombinant protein; label: 5' Cy5.5; single-stranded DNA
[3] = target: GST in crude E. coli lysate (UniProt P08515); assay: aptamer blot; settings: IPTG-induced crude lysate, on nitrocellulose; Dot blot/aptamer blot: 20 mM Tris-HCl, 100 mM NaCl, 5 mM MgCl2, 0.1% BSA (pH not given), 50 nM aptamer in dot blot (membranes equilibrated at 4 C); protein in a lysate after overexpression; label: 5' Cy5.5; single-stranded DNA
His-GFP = assay: aptamer blot; settings: SDS-PAGE protein on nitrocellulose; Dot blot/aptamer blot: 20 mM Tris-HCl, 100 mM NaCl, 5 mM MgCl2, 0.1% BSA (pH not given), 50 nM aptamer in dot blot (membranes equilibrated at 4 C); recombinant protein; protein details: His; label: 5' Cy5.5; single-stranded DNA
MBP-RPA2 = MBP-RPA2 (UniProt P15927); assay: aptamer blot; settings: SDS-PAGE protein on nitrocellulose; Dot blot/aptamer blot: 20 mM Tris-HCl, 100 mM NaCl, 5 mM MgCl2, 0.1% BSA (pH not given), 50 nM aptamer in dot blot (membranes equilibrated at 4 C); recombinant protein; protein details: MBP; label: 5' Cy5.5; single-stranded DNA
MBP-TvaF = assay: aptamer blot; settings: SDS-PAGE protein on nitrocellulose; Dot blot/aptamer blot: 20 mM Tris-HCl, 100 mM NaCl, 5 mM MgCl2, 0.1% BSA (pH not given), 50 nM aptamer in dot blot (membranes equilibrated at 4 C); recombinant protein; protein details: MBP; label: 5' Cy5.5; single-stranded DNA
GST-GFP = assay: aptamer blot; settings: SDS-PAGE protein on nitrocellulose; Dot blot/aptamer blot: 20 mM Tris-HCl, 100 mM NaCl, 5 mM MgCl2, 0.1% BSA (pH not given), 50 nM aptamer in dot blot (membranes equilibrated at 4 C); recombinant protein; protein details: GST; label: 5' Cy5.5; single-stranded DNA
GST-TrxA = assay: aptamer blot; settings: SDS-PAGE protein on nitrocellulose; Dot blot/aptamer blot: 20 mM Tris-HCl, 100 mM NaCl, 5 mM MgCl2, 0.1% BSA (pH not given), 50 nM aptamer in dot blot (membranes equilibrated at 4 C); recombinant protein; protein details: GST; label: 5' Cy5.5; single-stranded DNA
[4] = target: GST (glutathione S-transferase tag) (UniProt P08515); assay: dot blot (nitrocellulose filter binding); settings: nanomolar affinity, value only in figure; Dot blot/aptamer blot: 20 mM Tris-HCl, 100 mM NaCl, 5 mM MgCl2, 0.1% BSA (pH not given), 50 nM aptamer in dot blot (membranes equilibrated at 4 C); recombinant protein; label: 5' Cy5.5; single-stranded DNA
[5] = target: His-TrxA (His-tagged thioredoxin 1) (UniProt P0AA25); assay: EMSA; settings: native protein in solution, complex only at highest concentration (16 uM); EMSA: 50 mM Tris-HCl pH 7.5, 100 mM NaCl, 5 mM MgCl2, room temperature, 1 h; recombinant protein; protein details: His; label: 5' Cy5.5; single-stranded DNA
[6] = target: His-TrxA (His-tagged thioredoxin 1) (UniProt P0AA25); assay: aptamer blot; settings: SDS-PAGE protein on nitrocellulose; Dot blot/aptamer blot: 20 mM Tris-HCl, 100 mM NaCl, 5 mM MgCl2, 0.1% BSA (pH not given), 50 nM aptamer in dot blot (membranes equilibrated at 4 C); recombinant protein; protein details: His; label: 5' Cy5.5; single-stranded DNA
[7] = target: His-TrxA (His-tagged thioredoxin 1) (UniProt P0AA25); assay: dot blot (nitrocellulose filter binding); settings: nanomolar affinity, value only in figure; Dot blot/aptamer blot: 20 mM Tris-HCl, 100 mM NaCl, 5 mM MgCl2, 0.1% BSA (pH not given), 50 nM aptamer in dot blot (membranes equilibrated at 4 C); recombinant protein; protein details: His; label: 5' Cy5.5; single-stranded DNA

ATACGACTCACTATTAGGGACAAAGCTGACAACCCTTTCATAATCTAACTACATTTATGTGCTAGACTACTGACTAC [G1]
binding result [1]: no binding | binding result [2]: binds | binding result [3]: binds | binding result (His-GFP): no binding

ATACGACTCACTATTAGGGACCACATAAACATGCATCGCTCAATAACGGGATATTGTTGTGCTAGACTACTGACTACAA [M1]
binding result (MBP-RPA2): binds | binding result (MBP-TvaF): binds

ATACGACTCACTATTAGGGAGGAATAGGCGAACTAACAACGATTGTGTATTCCTCACAATGCTAGACTACTGACTAC [G2]
binding result [2]: binds | binding result (GST-GFP): binds | binding result (GST-TrxA): binds | binding result [4]: binds

ATACGACTCACTATTAGGGATGTCCACCATATAGATCGATTTAAGTCCCTCGTTATTAATGCTAGACTACTGACTACAA [H1]
binding result [5]: binds more weakly | binding result [6]: binds

ATACGACTCACTATTAGGGTGCGACGGGTCACTCAAATAGTCACTCATGCTTCTAAGATTGCTAGACTACTGACTACAA [H2]
binding result (His-GFP): binds | binding result [6]: binds | binding result [7]: binds

Construct, isoform or probe ends are uncertain for at least one entry. For part of these data: Negatives hold for the conditions tested. For part of these data: Weaker means in comparison with the reference protein, sequence or condition of that experiment. For part of these data: Results from cells or extracts need not show a direct contact.
